Drawing on publication PMC4351090, this text covers binding for two substances.

Protein sequences, listed by entry. Tags and fused reporters are not part of them. Lines headed by an entry give the natural chain unless they say otherwise; changes in a name come on top.
UniProt P23298: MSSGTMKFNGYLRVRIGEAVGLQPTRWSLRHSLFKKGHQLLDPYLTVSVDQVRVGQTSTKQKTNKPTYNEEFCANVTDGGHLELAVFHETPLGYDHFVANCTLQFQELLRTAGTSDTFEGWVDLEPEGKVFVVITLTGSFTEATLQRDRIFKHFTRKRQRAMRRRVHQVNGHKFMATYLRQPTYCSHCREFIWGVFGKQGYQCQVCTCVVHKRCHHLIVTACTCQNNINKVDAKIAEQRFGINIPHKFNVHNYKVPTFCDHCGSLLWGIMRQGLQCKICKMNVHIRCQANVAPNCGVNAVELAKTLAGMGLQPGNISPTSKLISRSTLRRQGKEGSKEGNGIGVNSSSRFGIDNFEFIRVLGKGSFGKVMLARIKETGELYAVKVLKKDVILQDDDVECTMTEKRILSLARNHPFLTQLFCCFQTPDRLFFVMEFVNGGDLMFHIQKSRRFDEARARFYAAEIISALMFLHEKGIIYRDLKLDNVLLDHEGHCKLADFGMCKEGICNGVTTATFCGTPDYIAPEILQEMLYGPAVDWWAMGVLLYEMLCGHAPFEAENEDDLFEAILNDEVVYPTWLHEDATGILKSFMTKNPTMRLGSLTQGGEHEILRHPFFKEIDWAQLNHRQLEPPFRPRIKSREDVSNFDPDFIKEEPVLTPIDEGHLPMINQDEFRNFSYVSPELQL
UniProt P26043: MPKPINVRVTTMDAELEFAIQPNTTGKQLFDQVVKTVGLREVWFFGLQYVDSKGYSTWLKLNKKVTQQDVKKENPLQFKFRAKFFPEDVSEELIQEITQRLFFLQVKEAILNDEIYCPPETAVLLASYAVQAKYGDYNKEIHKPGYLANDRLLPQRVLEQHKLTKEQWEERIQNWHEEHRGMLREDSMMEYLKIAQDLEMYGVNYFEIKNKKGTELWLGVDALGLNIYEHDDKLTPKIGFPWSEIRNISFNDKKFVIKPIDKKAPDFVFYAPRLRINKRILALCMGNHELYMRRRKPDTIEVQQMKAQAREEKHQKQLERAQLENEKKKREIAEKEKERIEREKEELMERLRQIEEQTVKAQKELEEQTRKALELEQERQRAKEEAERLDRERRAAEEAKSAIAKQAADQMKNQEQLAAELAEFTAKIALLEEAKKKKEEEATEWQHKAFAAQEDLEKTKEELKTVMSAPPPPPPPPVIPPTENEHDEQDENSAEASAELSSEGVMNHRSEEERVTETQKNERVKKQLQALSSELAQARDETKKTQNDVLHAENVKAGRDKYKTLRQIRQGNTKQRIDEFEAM

Results are given in words; binding and its absence hold for the method and conditions named. In cells and extracts the contact can be indirect. Some binding calls cover weakened binding; strength is not graded here.

One experiment has as its target Myc-tagged PKCη (UniProt P23298). Put plainly: co-IP.
The target of experiment [1] is Flag-tagged constitutively active radixin RdxT564E (UniProt P26043). Put plainly: co-IP; lysates of MVM-infected (30 pfu/cell) A9 cell lines co-expressing MycPKCη and a Flag-tagged ERM variant; non-denaturing conditions; IP with mouse monoclonal anti-Flag M2; western blot with rabbit anti-Myc. On the technique in general: In western blotting, separated proteins are transferred to a membrane and probed.

The target of experiment [2] is Flag-tagged dominant-negative radixin RdxT564A (UniProt P26043). Described as above.

Turning to “endogenous radixin (from UniProt P26043 1-583)”, the binding result with Myc-tagged PKCη was “binds”.

In the case of “Myc-tagged PKCη (from UniProt P23298 1-683) (enzyme)”, the results for the binding entry in experiment [1] and in experiment [2] were “binds” and “binds weakly”, respectively.
